Here are results for 53 compounds from paper PMC12670160, “A drug-repurposing screen of FDA- and EMA-approved drugs identifies two NF-κB inhibitors active against eumycetoma” (Journal of Antimicrobial Chemotherapy, 2025).

Molecules are shown by their SMILES. Counter-ions that a name gives are not always drawn. The whole screen tested about 5,300 compounds, of which about 130 (2.5%) showed an effect of 50% or more. The list shows a part of the results. Square brackets hold non-standard residues; d marks the D form. Peptide text beside a SMILES is read from it. dPhe(4-Cl) = N[C@H](Cc1ccc(Cl)cc1)C(=O)O; d2Nal = N[C@H](Cc1ccc2ccccc2c1)C(=O)O; dCit = NC(=O)NCCC[C@@H](N)C(=O)O; d3Pal = N[C@H](Cc1cccnc1)C(=O)O

In the test the test system is M. mycetomatis strain mm55. The settings on record: primary screen, metabolic activity vs growth control; 96 h, 2 µM; inhibitor.
For `CCC[C@H](NC(=O)/C(C#N)=C/c1cccc(Br)n1)c1ccccc1` [ONC0005240, degrasyn wp1130], the “% viability” value is 112.8%. For `Cn1c2cc([S+](C)[O-])sc2c2cnn(Cc3cccc(N)c3)c(=O)c21` (centres unmarked) [ONC0001067, tepp46], the “% viability” value is given as 56.1%. Turning to `COC(=O)c1ccc(N2CCN(C)CC2)c(NC(=O)c2cccc(OC)c2)c1` [ONC0003556, wdr50103], the “% viability” value is listed as 126.9%. Consider `Oc1ccc([C@@H]2Oc3ccc(O)cc3[C@@H]3CCC[C@@H]32)cc1` [ONC0003816, erteberel], for which the “% viability” value worked out at 55.32%.

For `Cc1cc(-c2nc(C(=O)Nc3cn(C4CCOCC4)nc3C(N)=O)co2)ccn1` [ONC0003602, as2444697], the “% viability” value is 131.8%. As for `Cc1cc(NC(=O)C(c2ccccc2)N2CCCc3ccccc32)no1` (centres unmarked) [ONC0001364, cim0216], the “% viability” value is 123.8%. On to `C[C@@]1(CO)[C@H](O)CC[C@@]2(C)[C@H]1CC[C@H]1C[C@@H]3C[C@@]12CC[C@]3(O)CO` [ONC0003485, aphidicolin], for which the “% viability” value is given as 62.35%. With `CC/C(=C(/CC)c1ccc(OP(=O)(O)O)cc1)c1ccc(OP(=O)(O)O)cc1` [ONC0003658, 3hexene34diylbis41phenylenebisdihydrogen phosphate], the “% viability” value turned out to be 81.1%. With `Clc1cccc(Cl)c1N=C1NCCN1` [ONC0004193, clonidine hydrochloride] the figure was 96.49%. With `C[C@@H](O)[C@H](N)C(=O)O` [ONC0005364, lthreonine] the figure was 105%; with `C=C1/C(=C\C=C2/CCC[C@]3(C)[C@@H]([C@H](C)CCCC(C)(C)O)CC[C@@H]23)C[C@@H](O)C[C@@H]1O` [ONC0004894, calcitriol rocaltrol], 111.5%. With `CC(C)(O/N=C(\C(=O)N[C@@H]1C(=O)N2C(C(=O)[O-])=C(C[n+]3ccccc3)CS[C@H]12)c1csc(N)n1)C(=O)O` [ONC0005610, ceftazidime] the figure was 74.59%; with `COc1cc2c(cc1NS(=O)(=O)c1ccc(Br)cc1C)n(C)c(=O)n2C` [ONC0003061, of1], 102.7%. In the case of `C[C@@H]1C[C@H]2[C@@H]3CCC4=CC(=O)C=C[C@]4(C)[C@@]3(Cl)[C@@H](O)C[C@]2(C)[C@@]1(O)C(=O)CCl` [ONC0005386, mometasone], the “% viability” value turned out to be 83.14%. For the compound `COC(=O)C1=C(C)NC(C)=C(C(=O)OC/C=C/c2ccccc2)C1c1cccc([N+](=O)[O-])c1` (centres unmarked) [ONC0003415, pranidipine], the “% viability” value stood at 94.69%. As for `N=C(N)NCCC(=O)O` [ONC0005527, guanidinopropionicacid], the “% viability” value is reported as 129.1%. The result for `CCc1c2c(nc3ccc(OC(=O)N4CCC(N5CCCCC5)CC4)cc13)-c1cc3c(c(=O)n1C2)COC(=O)[C@]3(O)CC` [ONC0003030, irinotecan] reads 94.75%; that for `C[n+]1ccc(C(=O)NCc2ccccc2)cc1` [ONC0003175, enisamiumiodide], 85.48%. With `CC(C)=CCC/C(C)=C/CNCCNC1C2CC3CC(C2)CC1C3` (centres unmarked) [ONC0002271, sq109] the figure was 59.4%.

Regarding `COc1cc2c(cc1OC)[C@@H]1CC(=O)[C@@H](CC(C)C)CN1CC2` [ONC0002682, tetrabenazine], the “% viability” value was 76.22%. The result for `CC(C)(C)NCC(O)c1ccccc1Cl` (centres unmarked) [ONC0002321, tulobuterol hydrochloride] reads 66.86%. As for `C[C@H]1[C@H](NC(=O)/C(=N\OC(C)(C)C(=O)O)c2csc(N)n2)C(=O)N1S(=O)(=O)O` [ONC0004310, aztreonam], the “% viability” value is on record as 85.25%.

Turning to `CCCN(CCC)[C@@H]1CCc2c(OC)cccc2[C@@H]1C` [ONC0001853, uh232], the “% viability” value is listed as 68.34%.

`OC[C@H]1O[C@@H](OCCc2ccc(O)cc2)[C@H](O)[C@@H](O)[C@@H]1O` [ONC0005198, salidroside rhodioloside]: the “% viability” value is 157.1%. The result for `CNCCC=C1c2ccccc2CCc2ccccc21` [ONC0000417, nortriptyline hydrochloride] reads 62.43%; that for `CC(=O)N[C@H](Cc1ccc2ccccc2c1)C(=O)N[C@H](Cc1ccc(Cl)cc1)C(=O)N[C@H](Cc1cccnc1)C(=O)N[C@@H](CO)C(=O)N[C@@H](Cc1ccc(O)cc1)C(=O)N[C@H](CCCNC(N)=O)C(=O)N[C@@H](CC(C)C)C(=O)N[C@@H](CCCNC(=N)N)C(=O)N1CCC[C@H]1C(=O)N[C@H](C)C(N)=O` [ONC0002249, cetrorelix acetate] (Ac-[d2Nal][dPhe(4-Cl)][d3Pal]SY[dCit]LRP[dA]-NH2), 190.6%. On to `Cn1cc(C2=C(c3ccc(Cl)cc3Cl)C(=O)NC2=O)c2ccccc21` [ONC0001729, sb216763], for which the “% viability” value is on record as 67.05%. With `O=C1Nc2cc(Br)ccc2/C1=C1/Nc2ccccc2/C1=N\O` [ONC0000166, gsk3inhibitorix] the figure was 89.34%.

As to `C=C1/C(=C\C=C2/CCC[C@]3(C)[C@@H]([C@H](C)CCCC(O)(C(F)(F)F)C(F)(F)F)CC[C@@H]23)C[C@@H](O)C[C@@H]1O` [ONC0002042, falecalcitriol], the “% viability” value stood at 65.6%. With `O=C(NC(NC(=S)Nc1ccc(F)c([N+](=O)[O-])c1)C(Cl)(Cl)Cl)C(c1ccccc1)c1ccccc1` (centres unmarked) [ONC0002722, cgk733] the figure was 77.49%. With `CN(C)c1cccc(Oc2cnc(Nc3cccc(O)c3)nc2)c1` [ONC0000163, sen1269] the figure was 90.25%; with `COc1cc(OC)c(/C=C2/C(=O)Nc3ccccc32)c(OC)c1` [ONC0000989, ic261], 74.99%; with `CC[C@H](C)[C@H]1O[C@]2(CC[C@@H]1C)C[C@@H]1C[C@@H](C/C=C(\C)[C@@H](O[C@H]3C[C@H](OC)[C@@H](O[C@H]4C[C@H](OC)[C@@H](O)[C@H](C)O4)[C@H](C)O3)[C@@H](C)/C=C/C=C3\CO[C@@H]4[C@H](O)C(C)=C[C@@H](C(=O)O1)[C@]34O)O2` [ONC0003329, ivermectin], 60.96%. Regarding `Oc1cc(CNC(=S)/C=C/c2cc(O)c(O)c(Br)c2)cc(O)c1O` [ONC0000999, nt157], the “% viability” value came out at 50.94%.

For the compound `CC[C@H](C)[C@@H]([C@@H](CC(=O)N1CCC[C@H]1[C@H](OC)[C@@H](C)C(=O)N[C@@H](Cc1ccccc1)c1nccs1)OC)N(C)C(=O)[C@@H](NC(=O)[C@H](C(C)C)N(C)C)C(C)C` [ONC0003667, dolastin10], the “% viability” value came out at 74.88%.

As to `CCc1cc(C(N)=S)ccn1` [ONC0000728, ethionamide], the “% viability” value worked out at 82.77%. The result for `NC(Cn1ccc(=O)n(Cc2ccccc2C(=O)O)c1=O)C(=O)O` (centres unmarked) [ONC0000754, ubp302] reads 93.89%; that for `Cc1ccc(-c2n[nH]c3c2C(c2cccc(O)c2)N(c2ccc(C(=O)O)cc2)C3=O)cc1` (centres unmarked) [ONC0000222, cid16020046], 94.06%; that for `CC[C@@H]1CN2C(=O)N(C)c3nc(-c4ccccc4)[nH]c3C2=N1` [ONC0002512, psb11], 71%.

`CC(C)(C)c1ccc(CN(Cc2cccc(OCC(=O)O)c2)S(=O)(=O)c2cccnc2)cc1` [ONC0001119, evatanepag]: the “% viability” value worked out at 63.47%. The result for `CCC(=O)[C@@]1(C)[C@H](C)C[C@H]2[C@@H]3CCC4=CC(=O)C=C[C@]4(C)[C@H]3[C@@H](O)C[C@@]21C` [ONC0002928, rimexolone] reads 55.04%; that for `CC(=O)Nc1ccc(S(=O)(=O)Nc2ccc([N+](=O)[O-])cc2)cc1` [ONC0003086, sulfanitran], 68.87%. With `Cc1ccc(C(=O)Nc2ccc(S(=O)(=O)O)c3cc(S(=O)(=O)O)cc(S(=O)(=O)O)c23)cc1NC(=O)c1cccc(NC(=O)Nc2cccc(C(=O)Nc3cc(C(=O)Nc4ccc(S(=O)(=O)O)c5cc(S(=O)(=O)O)cc(S(=O)(=O)O)c45)ccc3C)c2)c1` [ONC0000538, suramin hexasodium] the figure was 88.85%; with `NC(=O)c1ncn([C@@H]2O[C@H](CO)[C@@H](O)[C@H]2O)c1O` [ONC0005206, mizoribine bredinin], 136.6%; with `COc1cc([C@@H]2c3cc4c(cc3[C@@H](O[C@@H]3O[C@@H]5CO[C@@H](C)O[C@H]5[C@H](O)[C@H]3O)[C@H]3COC(=O)[C@H]23)OCO4)cc(OC)c1OP(=O)(O)O` [ONC0003311, etoposide phosphate], 77.62%. The result for `Cc1cn([C@@H]2C[C@@H](O)[C@H](CO)O2)c(=O)[nH]c1=O` [ONC0004416, telbivudine sebivo tyzeka] reads 98.41%. Take `CN(Cc1ccccc1)C(=O)[C@H](Cc1ccc2ccccc2c1)NC(=O)[C@@H]1C[C@@H](O)CN1C(=O)c1cn(C)c2ccccc12` [ONC0001318, fk888]: the “% viability” value is given as 95.71%. In the case of `CN(C)C(=S)SSC(=S)N(C)C` [ONC0003134, thiram], the “% viability” value is listed as 114.3%. With `CC(C)(C)NCC(O)CSc1nc(-c2ccc(C(N)=O)s2)cs1` (centres unmarked) [ONC0003287, arotinolol] the figure was 80.62%; with `Cc1cccc(Nc2cc(Cl)nc(SCC(=O)O)n2)c1C` [ONC0001441, pirinixicacid], 85.94%; with `CCOc1cc2ncc(C#N)c(Nc3ccc(OCc4ccccn4)c(Cl)c3)c2cc1NC(=O)/C=C/CN(C)C` [ONC0004941, neratinib hki272], 60.08%. With `O=C(N/N=C/c1ccc([N+](=O)[O-])o1)c1ccc(O)cc1` [ONC0005360, nifuroxazide] the figure was 75%. With `CN1CCN(C(c2ccccc2)c2ccc(Cl)cc2)CC1` (centres unmarked) [ONC0003461, chlorcyclizine hydrochloride] the figure was 53.59%.
